# ± gives the standard deviation of the averaged measurements. The effect of the compound repeats well; differences between the knockouts mostly do not.
# System: ZR-75-1
# Assay: relative cell number vs DMSO control (72 h) (% of DMSO); higher = less growth inhibition (more cells)
# Procedure: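 QMAP-Seq: a pool of 5 breast cancer cell lines (ZR-75-1, SKBR3, HCC-38, MDA-MB-231, BT-20), each carrying 12 doxycycline-inducible Cas9 sgRNA perturbations (11 knockouts plus non-targeting sgNT), was treated with compounds for 72 h at four 10-fold doses (10 nM-10 uM or 1 nM-1 uM range). Barcodes were amplified and sequenced, and cell number was interpolated from 293T spike-in standard curves. The result is expressed as % of the median of DMSO wells. Two biological replicates.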
# [1] = sgRNA knockout: sgATF3, 1000 nM
# [2] = sgRNA knockout: sgATF3, 10000 nM
# [3] = sgRNA knockout: sgATF4, 1000 nM
# [4] = sgRNA knockout: sgATF4, 10000 nM
# [5] = sgRNA knockout: sgATF6, 1000 nM
# [6] = sgRNA knockout: sgATF6, 10000 nM
# [7] = sgRNA knockout: sgATG7, 1000 nM
# [8] = sgRNA knockout: sgATG7, 10000 nM
# [9] = sgRNA knockout: sgERN1, 1000 nM
# [10] = sgRNA knockout: sgERN1, 10000 nM
# [11] = sgRNA knockout: sgHSF2, 1000 nM
# [12] = sgRNA knockout: sgHSF2, 10000 nM
# [13] = sgRNA knockout: sgNFE2L2, 10 nM
# [14] = sgRNA knockout: sgNFE2L2, 100 nM
# [15] = sgRNA knockout: sgNFE2L2, 1000 nM
# [16] = sgRNA knockout: sgNFE2L2, 10000 nM
# [17] = sgRNA knockout: sgSLC35F2, 10 nM
# [18] = sgRNA knockout: sgSLC35F2, 100 nM
# [19] = sgRNA knockout: sgSLC35F2, 1000 nM
# [20] = sgRNA knockout: sgSLC35F2, 10000 nM
# [21] = sgRNA knockout: sgXBP1, 1000 nM
# [22] = sgRNA knockout: sgXBP1, 10000 nM
SMILES,"relative cell number (sgRNA knockout: sgATF3, 10 nM)","relative cell number (sgRNA knockout: sgATF3, 100 nM)",relative cell number [1],relative cell number [2],"relative cell number (sgRNA knockout: sgATF4, 10 nM)","relative cell number (sgRNA knockout: sgATF4, 100 nM)",relative cell number [3],relative cell number [4],"relative cell number (sgRNA knockout: sgATF6, 10 nM)","relative cell number (sgRNA knockout: sgATF6, 100 nM)",relative cell number [5],relative cell number [6],"relative cell number (sgRNA knockout: sgATG7, 10 nM)","relative cell number (sgRNA knockout: sgATG7, 100 nM)",relative cell number [7],relative cell number [8],"relative cell number (sgRNA knockout: sgERN1, 10 nM)","relative cell number (sgRNA knockout: sgERN1, 100 nM)",relative cell number [9],relative cell number [10],"relative cell number (sgRNA knockout: sgHSF2, 10 nM)","relative cell number (sgRNA knockout: sgHSF2, 100 nM)",relative cell number [11],relative cell number [12],relative cell number [13],relative cell number [14],relative cell number [15],relative cell number [16],relative cell number [17],relative cell number [18],relative cell number [19],relative cell number [20],"relative cell number (sgRNA knockout: sgXBP1, 10 nM)","relative cell number (sgRNA knockout: sgXBP1, 100 nM)",relative cell number [21],relative cell number [22]
C=C(C)[C@@H]1CC[C@]2(C(=O)O)CC[C@]3(C)[C@H](CC[C@@H]4[C@@]5(C)CC[C@H](O)C(C)(C)[C@@H]5CC[C@]43C)[C@@H]12 [BetulinicAcid],116 ± 53,86.2 ± 2.2,96.8 ± 15,92.8 ± 5.1,88.2 ± 5,78.9 ± 35,78 ± 17,95.6 ± 11,113 ± 44,119 ± 18,79 ± 12,136 ± 20,124 ± 24,106 ± 12,105 ± 40,84.3 ± 48,90.8 ± 16,69.1 ± 5.4,95.3 ± 20,108 ± 2.4,128 ± 3.2,84.5 ± 8,110 ± 37,88.7 ± 6.5,94.6 ± 8.3,80.3 ± 35,115 ± 59,119 ± 14,48.4 ± 13,105 ± 9.2,59 ± 24,51.9 ± 12,95.8 ± 24,87 ± 11,102 ± 29,102 ± 7
C[C@]12CC[C@@H]3c4ccc(O)cc4C[C@@H](CCCCCCCCC[S+]([O-])CCCC(F)(F)C(F)(F)F)[C@H]3[C@@H]1CC[C@@H]2O (some centres not stated) [Fulvestrant],96.19 ± 0.38,54.1 ± 3.7,61 ± 3.4,60 ± 6.8,77.8 ± 11,61.1 ± 30,58.3 ± 33,77.4 ± 35,60.8 ± 12,74.2 ± 34,42.6 ± 18,40.3 ± 9.6,74.9 ± 6,47.5 ± 0.7,56 ± 9.9,81.93 ± 0.75,70 ± 8.1,56.3 ± 20,55.8 ± 1.5,73.7 ± 7.9,71.22 ± 0.42,74.1 ± 14,68 ± 28,69.1 ± 22,64.4 ± 28,64.4 ± 5.9,60.4 ± 15,58 ± 25,73.8 ± 23,70.8 ± 14,47.2 ± 12,58.5 ± 7.9,64.8 ± 22,71.8 ± 6.4,61.4 ± 9.6,62 ± 13
CC[C@H](C)C(=O)O[C@H]1C[C@@H](C)C=C2C=C[C@H](C)[C@H](CC[C@@H]3C[C@@H](O)CC(=O)O3)[C@H]21 [Lovastatin],137 ± 22,83.6 ± 2.8,81.7 ± 2.5,78.6 ± 14,125 ± 24,80 ± 0.32,147 ± 61,71.5 ± 20,130 ± 4.4,129 ± 61,100 ± 3.2,87.4 ± 2,99.2 ± 13,82.1 ± 23,87.2 ± 30,72.9 ± 32,81.2 ± 4.5,83.8 ± 22,85.6 ± 18,78.1 ± 13,102 ± 17,89.2 ± 3,87.5 ± 5.7,66.1 ± 3,99.7 ± 51,83.3 ± 11,104 ± 6.1,78 ± 14,166 ± 84,81.9 ± 16,131 ± 26,44.6 ± 16,95.3 ± 16,85 ± 16,92.5 ± 2.7,76 ± 15
O=C(O)CCCc1ccc(N(CCCl)CCCl)cc1 [Chlorambucil],95.9 ± 30,133 ± 4.7,106 ± 22,68.5 ± 3,110 ± 6.3,89.4 ± 5.2,64.8 ± 10,56.2 ± 13,68.7 ± 50,85.4 ± 21,51.5 ± 16,53.3 ± 4,85.9 ± 30,82.5 ± 6.6,52.53 ± 0.16,86.7 ± 5.7,97.2 ± 45,109 ± 55,90 ± 3.2,65 ± 17,111 ± 5.8,109 ± 32,97.1 ± 4,70.8 ± 6.5,105 ± 29,80.1 ± 6.9,89.3 ± 6.8,62.9 ± 14,91 ± 35,112 ± 36,80.8 ± 12,38.9 ± 21,98 ± 21,89.5 ± 7.3,108 ± 29,56.3 ± 5
CCC(C)SSc1ncc[nH]1 (configuration not stated) [PX12],153 ± 23,109 ± 2.7,117 ± 6.2,82.9 ± 19,80.8 ± 35,145 ± 22,108 ± 24,89.7 ± 16,143 ± 2.5,87.9 ± 68,106 ± 30,52.6 ± 13,111 ± 32,102 ± 55,108 ± 1.2,49.2 ± 0.98,129 ± 24,101 ± 9.5,105 ± 22,68.2 ± 15,112 ± 2.3,116 ± 30,107 ± 1.5,60.2 ± 3,122 ± 33,126 ± 12,107 ± 35,63.1 ± 27,141 ± 42,160 ± 1.9,113 ± 19,50.8 ± 36,115 ± 28,115 ± 6.5,109 ± 8.1,79.8 ± 3.4
Cc1ncc([N+](=O)[O-])n1CC(O)CCl (configuration not stated) [Ornidazole],106 ± 12,98.5 ± 29,134 ± 74,96.3 ± 19,104 ± 23,101 ± 18,81.7 ± 18,116 ± 13,110 ± 34,97.9 ± 55,80.1 ± 9.6,74.9 ± 24,71.5 ± 25,92.9 ± 19,96.8 ± 33,114 ± 4.6,83 ± 4.7,87.7 ± 2.9,89 ± 7.7,87.8 ± 7.5,81.7 ± 1.9,87.2 ± 17,105 ± 5.3,99.3 ± 2.5,90.9 ± 4.1,102 ± 24,109 ± 6,90.6 ± 9.9,87.5 ± 50,89.4 ± 42,80.7 ± 61,82.6 ± 14,82.5 ± 0.85,89.9 ± 8.2,96.9 ± 15,92 ± 7.2
Nc1nc(OCc2cc(Br)cs2)c2[nH]cnc2n1 [Lomeguatrib],89.3 ± 3.7,115 ± 3.2,108 ± 32,93.9 ± 14,97.7 ± 13,119 ± 34,124 ± 8.6,73.8 ± 8,129 ± 6.4,107 ± 20,145 ± 26,105 ± 63,120 ± 28,102 ± 6.5,112 ± 20,110.9 ± 0.61,91 ± 26,122 ± 19,89.9 ± 5,102 ± 37,108 ± 16,95.4 ± 1.4,84.3 ± 5,103 ± 2.1,110 ± 52,96 ± 7.5,96.6 ± 29,83.4 ± 12,90.2 ± 57,128 ± 46,74.5 ± 12,92.8 ± 1.7,102 ± 32,96.5 ± 15,82.2 ± 11,84.3 ± 2.9

# — the supplement of paper PMC7661543
